Values from PubChem BioAssay AID1259425 (University of Nebraska Medical Center, 2018).
In all, the deposit lists about 14,000 reagents; this is a part drawn at random. Further read-outs or replicates are left out here. Not given: the time to read-out.

Purpose: 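Compare each knockdown with KSR1 silencing using changes in marker transcripts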 (primary screen)
System: HCT116 human colon cancer cells
Knock-down reagent: siRNA pool against human genes, 50 nM siRNA
Detection: 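After 50 nM siRNA pool, branched-DNA assay measures six marker transcripts per well, minus blank, normalised to the geometric mean of two housekeeping transcripts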
Direction: BNIP3L mRNA: higher = more BNIP3L transcript after knockdown

FASTKD5 (FASTK mitochondrial RNA regulator 5)
- BNIP3L mRNA, set 1: 0.146

ZP2 (zona pellucida glycoprotein 2)
- BNIP3L mRNA, set 1: 0.0539

SGSM3 (small G protein signaling modulator 3)
- BNIP3L mRNA, set 1: 0.0932

CHN2 (chimerin 2)
- BNIP3L mRNA, set 1: 0.0679

CARS1 (cysteinyl-tRNA synthetase 1)
- BNIP3L mRNA, set 1: 0.125

BIRC6 (baculoviral IAP repeat containing 6)
- BNIP3L mRNA, set 1: 0.089

ZNF211 (zinc finger protein 211)
- BNIP3L mRNA, set 1: 0.169

PYROXD1 (pyridine nucleotide-disulphide oxidoreductase domain 1)
- BNIP3L mRNA, set 1: 0.0901

RAPH1
- BNIP3L mRNA, set 1: 0.0903

FFAR2 (free fatty acid receptor 2)
- BNIP3L mRNA, set 1: 0.361

PRSS50 (serine protease 50)
- BNIP3L mRNA, set 1: 0.0691

MAT2B (methionine adenosyltransferase 2 non-catalytic beta subunit)
- BNIP3L mRNA, set 1: 0.219
